These are yes or no findings as the source states them, for the method shown. Binding seen in cells or lysates may run through a third protein. Some results given as binding are weak or reduced against the parent protein; the word gives no strength.

Sequences of proteins named here, by UniProt entry; tags and fusion partners are left off.
UniProt P54098: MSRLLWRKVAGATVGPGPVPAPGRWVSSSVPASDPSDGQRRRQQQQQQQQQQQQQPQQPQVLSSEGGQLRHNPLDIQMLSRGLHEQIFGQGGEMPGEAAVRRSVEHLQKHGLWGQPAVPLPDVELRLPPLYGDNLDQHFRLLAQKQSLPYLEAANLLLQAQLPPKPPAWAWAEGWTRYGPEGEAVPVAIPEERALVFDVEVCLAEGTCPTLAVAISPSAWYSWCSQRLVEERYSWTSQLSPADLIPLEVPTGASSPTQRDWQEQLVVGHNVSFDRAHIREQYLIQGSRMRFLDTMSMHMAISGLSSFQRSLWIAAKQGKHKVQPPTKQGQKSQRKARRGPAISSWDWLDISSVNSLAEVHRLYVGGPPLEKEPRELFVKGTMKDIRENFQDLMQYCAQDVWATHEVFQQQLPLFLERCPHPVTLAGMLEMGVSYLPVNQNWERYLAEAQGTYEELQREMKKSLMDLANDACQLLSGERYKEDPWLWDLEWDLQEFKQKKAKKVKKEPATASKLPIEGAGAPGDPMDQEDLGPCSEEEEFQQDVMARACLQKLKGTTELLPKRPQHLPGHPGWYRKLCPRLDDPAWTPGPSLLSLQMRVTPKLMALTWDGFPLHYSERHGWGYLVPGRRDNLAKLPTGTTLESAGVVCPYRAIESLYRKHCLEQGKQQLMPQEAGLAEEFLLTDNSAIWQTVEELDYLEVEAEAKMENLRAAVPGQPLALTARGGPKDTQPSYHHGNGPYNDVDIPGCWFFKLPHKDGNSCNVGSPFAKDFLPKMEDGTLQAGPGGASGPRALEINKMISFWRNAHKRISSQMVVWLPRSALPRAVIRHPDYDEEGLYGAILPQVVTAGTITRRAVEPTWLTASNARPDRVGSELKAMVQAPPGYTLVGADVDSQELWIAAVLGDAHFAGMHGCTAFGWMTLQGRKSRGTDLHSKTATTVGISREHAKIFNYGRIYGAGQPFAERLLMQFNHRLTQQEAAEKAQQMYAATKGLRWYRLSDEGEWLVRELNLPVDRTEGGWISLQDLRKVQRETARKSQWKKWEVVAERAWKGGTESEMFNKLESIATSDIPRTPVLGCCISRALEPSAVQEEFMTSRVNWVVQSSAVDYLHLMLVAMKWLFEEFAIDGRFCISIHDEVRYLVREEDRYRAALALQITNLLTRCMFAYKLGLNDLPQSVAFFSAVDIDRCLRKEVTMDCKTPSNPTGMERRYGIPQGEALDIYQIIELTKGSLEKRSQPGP

From PMC5541716 come the findings set out here.

This assay has as its target histone H2A member X (H2AX), endogenous in HepG2 cells (human (endogenous in HepG2)) (UniProt P16104). The assay is described as follows: co-IP; HepG2 cells overexpressing ASPH or control vector; immunoprecipitation with H2AX antibody, immunoblot with ASPH, POLG and mTFA antibodies.

Consider “DNA polymerase gamma (POLG), endogenous in HepG2 cells (from UniProt P54098 1-1239) (enzyme)”, for which the binding result is “binds”.
